The values below come from publication PMC7904567.

Chains of the proteins cited; added tags and fusions are not shown. Residues count along the entry.
UniProt P34067, residues 86-263: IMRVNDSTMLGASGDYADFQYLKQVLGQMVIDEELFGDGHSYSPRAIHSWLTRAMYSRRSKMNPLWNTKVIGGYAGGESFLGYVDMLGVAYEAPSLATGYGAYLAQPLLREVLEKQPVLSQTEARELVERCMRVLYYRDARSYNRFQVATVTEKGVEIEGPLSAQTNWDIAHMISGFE

Results are given in words; binding and its absence hold for the method and conditions named. Some entries that bind do so weakly or less than the wild type.

What all share (assay): two-hybrid; yeast two-hybrid screen with the bait Bsn1; other Bsn fragments tested against PSMB4 in the same assay; no methods section
The target of test [1] is T1, Bsn fragment covering aa 3263–3938 (rat) (UniProt O88778).
T1 sequence: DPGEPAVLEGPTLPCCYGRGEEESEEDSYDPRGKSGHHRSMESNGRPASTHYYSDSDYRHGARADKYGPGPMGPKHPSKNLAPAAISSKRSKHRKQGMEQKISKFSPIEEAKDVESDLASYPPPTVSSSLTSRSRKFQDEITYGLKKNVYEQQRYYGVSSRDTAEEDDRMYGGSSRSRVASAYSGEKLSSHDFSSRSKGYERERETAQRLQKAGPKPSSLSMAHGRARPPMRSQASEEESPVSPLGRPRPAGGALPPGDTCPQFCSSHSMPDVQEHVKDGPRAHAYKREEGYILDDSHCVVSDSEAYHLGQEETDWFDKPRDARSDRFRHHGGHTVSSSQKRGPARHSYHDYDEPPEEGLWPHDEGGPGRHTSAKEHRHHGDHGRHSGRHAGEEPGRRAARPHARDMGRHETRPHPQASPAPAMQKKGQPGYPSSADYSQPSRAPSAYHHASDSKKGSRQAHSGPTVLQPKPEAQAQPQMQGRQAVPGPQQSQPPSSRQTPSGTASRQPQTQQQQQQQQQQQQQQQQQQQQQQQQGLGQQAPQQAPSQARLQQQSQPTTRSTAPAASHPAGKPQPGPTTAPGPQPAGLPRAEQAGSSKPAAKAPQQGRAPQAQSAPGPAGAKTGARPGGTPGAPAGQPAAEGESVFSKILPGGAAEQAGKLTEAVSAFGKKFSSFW

The target in test [2] is Bsn1 bait fragment (aa 1692–3263 of rat Bsn) (rat) (UniProt O88778).
The target in test [3] is T2, Bsn fragment covering aa 609–1692 (rat) (UniProt O88778).
T2 sequence: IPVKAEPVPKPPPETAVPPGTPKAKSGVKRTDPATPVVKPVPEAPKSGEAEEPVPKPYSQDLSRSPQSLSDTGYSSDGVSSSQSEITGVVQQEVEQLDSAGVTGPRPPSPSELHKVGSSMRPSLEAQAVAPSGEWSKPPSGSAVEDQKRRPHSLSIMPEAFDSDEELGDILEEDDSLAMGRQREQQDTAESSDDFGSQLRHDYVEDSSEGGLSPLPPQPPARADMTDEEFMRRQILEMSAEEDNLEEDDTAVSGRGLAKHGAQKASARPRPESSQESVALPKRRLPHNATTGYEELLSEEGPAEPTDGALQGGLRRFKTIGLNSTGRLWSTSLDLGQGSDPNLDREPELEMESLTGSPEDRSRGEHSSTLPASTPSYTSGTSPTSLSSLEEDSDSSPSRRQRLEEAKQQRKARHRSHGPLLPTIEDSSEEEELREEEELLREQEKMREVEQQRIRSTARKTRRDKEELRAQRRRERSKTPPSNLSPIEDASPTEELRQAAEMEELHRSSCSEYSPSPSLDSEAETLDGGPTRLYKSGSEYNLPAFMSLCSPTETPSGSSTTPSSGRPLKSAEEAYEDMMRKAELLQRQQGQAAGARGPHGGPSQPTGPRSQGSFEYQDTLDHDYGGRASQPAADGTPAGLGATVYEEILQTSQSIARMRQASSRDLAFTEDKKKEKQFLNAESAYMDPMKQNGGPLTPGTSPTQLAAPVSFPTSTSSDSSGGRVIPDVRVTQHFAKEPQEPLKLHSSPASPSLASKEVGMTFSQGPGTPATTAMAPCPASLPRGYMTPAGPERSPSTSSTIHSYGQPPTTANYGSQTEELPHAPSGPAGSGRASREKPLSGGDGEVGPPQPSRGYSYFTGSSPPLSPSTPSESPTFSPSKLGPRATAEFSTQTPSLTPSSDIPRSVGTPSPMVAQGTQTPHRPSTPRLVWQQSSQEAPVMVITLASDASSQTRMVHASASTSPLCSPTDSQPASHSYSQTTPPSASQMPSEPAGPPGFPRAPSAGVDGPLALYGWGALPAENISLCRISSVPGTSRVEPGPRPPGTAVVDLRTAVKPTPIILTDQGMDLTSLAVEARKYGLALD

Test [4] deals with T3, Bsn fragment covering aa 1–609 (rat) (UniProt O88778).
T3 sequence: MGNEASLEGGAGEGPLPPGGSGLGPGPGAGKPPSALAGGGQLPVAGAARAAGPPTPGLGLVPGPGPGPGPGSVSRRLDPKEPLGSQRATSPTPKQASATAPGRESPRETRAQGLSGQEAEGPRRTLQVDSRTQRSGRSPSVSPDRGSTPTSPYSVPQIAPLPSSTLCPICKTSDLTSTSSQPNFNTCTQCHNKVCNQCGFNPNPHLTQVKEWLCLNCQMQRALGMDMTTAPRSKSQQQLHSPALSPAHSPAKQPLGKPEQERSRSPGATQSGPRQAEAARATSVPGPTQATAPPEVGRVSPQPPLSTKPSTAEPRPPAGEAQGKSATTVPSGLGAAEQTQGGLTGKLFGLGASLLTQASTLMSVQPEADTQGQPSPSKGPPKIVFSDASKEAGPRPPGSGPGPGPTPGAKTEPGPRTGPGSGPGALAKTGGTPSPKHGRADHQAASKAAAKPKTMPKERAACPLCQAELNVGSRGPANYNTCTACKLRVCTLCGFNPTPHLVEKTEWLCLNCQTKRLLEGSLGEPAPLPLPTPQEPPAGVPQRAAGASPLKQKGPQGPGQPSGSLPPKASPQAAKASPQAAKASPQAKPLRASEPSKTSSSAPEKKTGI

On to “N-terminally truncated PSMB4 prey clone starting with aa 86 (from UniProt P34067 86-263) (domain or fragment)”, for which the binding entry in test [1] was “no binding”; in test [2] it was “binds”; in test [3] it was “no binding”; in test [4] it was “no binding”.
